# Hit rate of the full screen: of about 300,000 compounds, about 5,400 (1.8%) were called active. This list was built around the results that the source calls inconclusive (neither active nor inactive); the mix of calls is not that of the screen. Calls come from the whole dose curve; tested in HEK293 cells. Potencies of inconclusive entries are doubtful fits and often do not repeat.
# Test: qHTS for inhibitors of binding or entry into cells for Marburg Virus
# Settings: Marburg virus pseudotyped entry inhibition, cell reporter; activity change, negative = inhibition: at 37.8 µM (top of the series) unless noted
# % is set by controls: 0 for no effect and ±100 for the full control effect; potency is the fitted concentration of half-maximal effect.
SMILES,Potency,"activity change, negative = inhibition"
Cc1cc(CCNC=O)c(C)c2c1sc1ccccc12,inactive,–
O=S(=O)(Cc1cc(Sc2ccccc2)nc(-c2ccccc2)n1)c1ccccc1,"inconclusive: 5.62 µM [activator, single point]",–
CCOC(=O)c1cc(-c2cccnc2)nn1-c1ccccc1,"inconclusive: 12.6 µM [inhibitor, single point]",–
CC1CC(C)CN(C(C)C(=O)Nc2cc(S(=O)(=O)N3CCCCC3)ccc2Cl)C1 (centres undefined),inactive,–
CCOc1ccc(CCNC(=O)COC(=O)c2nc3nc(C)cc(C)n3n2)cc1OCC,inactive,–
COc1cccc(NC(=O)CSc2nc3ccccc3cc2Cc2ccccc2)c1,"inconclusive: 23.1 µM [inhibitor, single point]",–
Cc1ccc(F)c(NC(=O)c2ccc(Cn3cc(Cl)cn3)cc2)c1,"inconclusive: 29.1 µM [inhibitor, single point]",–
CCN(CC)c1ccc(/C=N/NC(=O)c2ccoc2C)cc1,"inconclusive: 6.31 µM [inhibitor, full curve, poor fit]",–
COc1cccc(OC)c1NC(=O)NC(=O)c1c(OC)c(Br)cc([N+](=O)[O-])c1OC,"inconclusive: 0.447 µM [inhibitor, partial curve, poor fit]",–
Cc1nn(C)cc1C(C(=O)NC1CCCCC1)N(C(=O)Cc1cccs1)c1ccc(C(C)C)cc1 (centres undefined),"inconclusive: 29.1 µM [inhibitor, single point]",–
Cc1ccc(C(=O)Nc2cc(Cl)ccc2OC(=O)c2ccc(C)cc2)cc1,inactive,–
c1ccc2c(c1)CCCN2Cc1nnnn1C1CCCC1,inactive,–
COc1ccc(CNC(=O)CSc2nnnn2-c2ccc(O)cc2)cc1,"inconclusive: 2.31 µM [activator, partial curve, poor fit]",–
CC1=C(CC(=O)c2ccc(Cl)cc2)C(=O)c2ccccc2C1=O,inactive,–
Cc1c(C(=O)O)oc2ccc(S(=O)(=O)NCc3ccc4c(c3)OCO4)cc12,inactive,–
C/C=C1\C(=O)CC2C3CCC4=CC(=O)CC[C@]4(C)C3CC[C@]12C (some centres undefined),–,inconclusive: -23.3% [inhibitor]
CCC(CC)C(=O)Nc1ccc(OCc2cc(=O)n3c4c(sc3n2)CCCC4)cc1,inactive,–
CN1/C(=C\C=N\NC(=O)c2ccc(O)cc2)C(C)(C)c2ccccc21,"inconclusive: 35.5 µM [inhibitor, partial curve, poor fit]",–
COc1ccc(/C=C/C(=O)N(C)Cc2cccs2)cc1S(=O)(=O)N1CCOCC1,"inconclusive: 1 µM [inhibitor, single point]",–
CC(/C=C/C(=O)c1ccc(C)cc1)=C\c1ccccc1,inactive,–
Nn1c(SCC(=O)NC(=O)Nc2ccc3c(c2)OCCO3)nnc1C1CC1,"inconclusive: 8.91 µM [activator, partial curve, poor fit]",–
Cc1ccc(CNC(=O)c2cc(COc3c(F)cccc3F)on2)s1,inactive,–
CCN1CCCC1CNC(=O)CSc1cc(=O)n(C)c2cc(Cl)ccc12 (centres undefined),"inconclusive: 23.1 µM [inhibitor, partial curve, poor fit]",–

SMILES,Potency,"activity change, negative = inhibition"
CCCCOC(=O)Cn1c(=O)c2c(nc(Br)n2Cc2ccccc2)n(C)c1=O,inactive,–
CCOc1ccc(C(=O)Nc2ccc(S(=O)(=O)N3C[C@@H]4C[C@@H](C3)c3cccc(=O)n3C4)cc2)cc1,inactive,–
CN(C)C(Cc1ccc(Cl)cc1)C(=O)c1ccccc1 (centres undefined),"inconclusive: 11.2 µM [activator, single point]",–
COc1ccc(NS(=O)(=O)c2cccc(NC(=O)c3cnccn3)c2)cc1Br,"inconclusive: 8.91 µM [inhibitor, partial curve, poor fit]",–
N#Cc1c(NC(=O)c2cnn3cccnc23)sc2c1CCCC2,"inconclusive: 1.12 µM [activator, full curve]",–
COc1cc(C(=O)Nc2nc(-c3cccs3)cs2)cc(OC)c1OC,active: 18.3 µM,–
COc1ccc(Cl)cc1C(=O)NCc1ccc2c(c1)OCO2,"inconclusive: 35.5 µM [inhibitor, single point]",–
COC(=O)[C@H](Cc1ccccc1)N1CC=CCOc2c(Cl)cc(Cl)cc2[S+]1(=O)[O-],"inconclusive: 7.91 µM [inhibitor, full curve]",–
CC1(C)CC(N(CCc2ccccc2)Cc2ccccc2)CCO1 (centres undefined),"inconclusive: 10 µM [inhibitor, partial curve, poor fit]",–
Nc1ccc(C(=O)CC(=O)Nc2ccc(Cl)cc2)cc1,"inconclusive: 11.2 µM [inhibitor, single point]",–
COc1ccccc1N1CCN(C(=O)c2ccc(CS(=O)c3ccccc3C)o2)CC1 (centres undefined),"inconclusive: 8.91 µM [inhibitor, partial curve, poor fit]",–
Cc1nc2c(-c3ccc(Cl)cc3)c(C)[nH]n2c(=O)c1Cc1ccccc1,active: 3.98 µM,–
Cc1ccc(/C=C(\NC(=O)c2ccccc2)C(=O)NC(Cc2ccccc2)C(=O)O)cc1 (centres undefined),"inconclusive: 0.355 µM [activator, partial curve, poor fit]",–
CC(C(=O)Nc1ccccc1C(=O)N1CCOCC1)N(c1ccc(Cl)cc1)S(C)(=O)=O (centres undefined),inactive,–
O=C(N/N=C/c1ccncc1)c1cc2ccccc2o1,"inconclusive: 5.62 µM [activator, single point]",–
Cc1cccc(-n2c(CNC(=O)Cc3ccccc3)n[nH]c2=S)c1,"inconclusive: 7.08 µM [activator, partial curve]",–
CCOC(=O)c1ccccc1NC(=O)CSc1nnc(COc2ccccc2C)n1C,"inconclusive: 14.6 µM [inhibitor, single point]",–
CN1CCN(NC(=O)c2ccc(Cl)cc2Cl)CC1,"inconclusive: 0.316 µM [inhibitor, partial curve, poor fit]",–
O=C(NNc1ncccc1Cl)c1c(Cl)cccc1Cl,inactive,–
CSc1ncccc1C(=O)OCC(=O)c1ccccc1Br,inactive,–
CCOc1ccccc1-c1nc(C(N)=O)c2[nH]c(=O)n(-c3cccc(C)c3)c2n1,"inconclusive: 25.1 µM [inhibitor, partial curve, poor fit]",–
Cc1ccc(/C=C/C2=NN(Cc3ccccc3)C(=O)CC2)cc1,inactive,–
CN(Cc1cccs1)C(=O)CCc1c[nH]c2ccccc12,inactive,–

# Another view of 17 compounds above:
SMILES	Potency	activity change, negative = inhibition
Cc1c(C(=O)O)oc2ccc(S(=O)(=O)NCc3ccc4c(c3)OCO4)cc12	inactive	–
C/C=C1\C(=O)CC2C3CCC4=CC(=O)CC[C@]4(C)C3CC[C@]12C (some centres undefined)	–	inconclusive: -23.3% [inhibitor]
CCC(CC)C(=O)Nc1ccc(OCc2cc(=O)n3c4c(sc3n2)CCCC4)cc1	inactive	–
CN1/C(=C\C=N\NC(=O)c2ccc(O)cc2)C(C)(C)c2ccccc21	inconclusive: 35.5 µM [inhibitor, partial curve, poor fit]	–
COc1ccc(/C=C/C(=O)N(C)Cc2cccs2)cc1S(=O)(=O)N1CCOCC1	inconclusive: 1 µM [inhibitor, single point]	–
CC(/C=C/C(=O)c1ccc(C)cc1)=C\c1ccccc1	inactive	–
Nn1c(SCC(=O)NC(=O)Nc2ccc3c(c2)OCCO3)nnc1C1CC1	inconclusive: 8.91 µM [activator, partial curve, poor fit]	–
Cc1ccc(CNC(=O)c2cc(COc3c(F)cccc3F)on2)s1	inactive	–
CCN1CCCC1CNC(=O)CSc1cc(=O)n(C)c2cc(Cl)ccc12 (centres undefined)	inconclusive: 23.1 µM [inhibitor, partial curve, poor fit]	–
CCCCOC(=O)Cn1c(=O)c2c(nc(Br)n2Cc2ccccc2)n(C)c1=O	inactive	–
CCOc1ccc(C(=O)Nc2ccc(S(=O)(=O)N3C[C@@H]4C[C@@H](C3)c3cccc(=O)n3C4)cc2)cc1	inactive	–
CN(C)C(Cc1ccc(Cl)cc1)C(=O)c1ccccc1 (centres undefined)	inconclusive: 11.2 µM [activator, single point]	–
COc1ccc(NS(=O)(=O)c2cccc(NC(=O)c3cnccn3)c2)cc1Br	inconclusive: 8.91 µM [inhibitor, partial curve, poor fit]	–
N#Cc1c(NC(=O)c2cnn3cccnc23)sc2c1CCCC2	inconclusive: 1.12 µM [activator, full curve]	–
COc1cc(C(=O)Nc2nc(-c3cccs3)cs2)cc(OC)c1OC	active: 18.3 µM	–
COc1ccc(Cl)cc1C(=O)NCc1ccc2c(c1)OCO2	inconclusive: 35.5 µM [inhibitor, single point]	–
COC(=O)[C@H](Cc1ccccc1)N1CC=CCOc2c(Cl)cc(Cl)cc2[S+]1(=O)[O-]	inconclusive: 7.91 µM [inhibitor, full curve]	–

# Following part:

SMILES,Potency,"activity change, negative = inhibition"
CCn1c2ccccc2c2cc(CN3CCN(C(=O)c4ccco4)CC3)ccc21,"inconclusive: 22.4 µM [inhibitor, single point]",–
O=C(NCc1ccco1)c1ccc(-c2cccc(Cl)c2)o1,inactive,–
COc1ccc(C(=O)NCCC2=CCCCC2)cc1OC,"inconclusive: 0.447 µM [activator, full curve, poor fit]",–
C/C=C/Cn1c(Br)nc2c1c(=O)n(C)c(=O)n2C,"inconclusive: 6.51 µM [inhibitor, single point]",–
CC(=O)Oc1ccc2c(=O)c(N3C(=O)c4ccccc4C3=O)c(C)oc2c1C,"inconclusive: 0.708 µM [activator, single point]",–
CCN(CC)S(=O)(=O)c1cccc(S(=O)(=O)c2cccc(S(=O)(=O)N(CC)CC)c2)c1,"inconclusive: 5.8 µM [inhibitor, partial curve, poor fit]",–
COc1ccccc1C(=O)N/C(=C\c1ccc(Br)cc1)C(=O)NCC(=O)O,"inconclusive: 1.26 µM [activator, single point]",–
COc1ccc2cc(/C(C)=N/NC(=O)c3cc(-c4cccnc4)nc4ccccc34)ccc2c1,"inconclusive: 3.26 µM [inhibitor, single point]",–
Cn1cc([N+](=O)[O-])c(C(=O)Nc2ccc3nc(-c4ccccc4)[nH]c3c2)n1,"inconclusive: 2.82 µM [activator, single point]",–
Cc1cccc(-c2nnc(SCC(=O)NC3CCCC3)o2)c1,"inconclusive: 2.82 µM [inhibitor, partial curve, poor fit]",–
COc1ccccc1-c1nn2c(-c3ccccc3Cl)nnc2s1,inactive,–
Cc1nc(-c2ccccc2)sc1C(=O)CSc1ccc(Cl)cc1,"inconclusive: 0.562 µM [activator, full curve, poor fit]",–
Cc1ccc2c(C(=O)CSc3ccccc3)c(C)[nH]c2c1,"inconclusive: 3.55 µM [activator, single point]",–
CCN(CC)C(=O)c1ccc(NC(=O)c2c(C)noc2C)cc1,"inconclusive: 3.16 µM [activator, single point]",–
O=C(O)c1ccc2c(c1)ncn2-c1ccc(F)c(F)c1,"inconclusive: 3.16 µM [inhibitor, single point]",–
CCN(CC)S(=O)(=O)c1ccc(N2CCCCC2)c(NC(=O)/C=C/c2ccc(OC)c(OC)c2)c1,inactive,–
O=C(NC1CCCC1)C(c1ccncc1)N(C(=O)c1csnn1)c1cccc(Cl)c1 (centres undefined),inactive,–
CCN(CC)C(=O)CSc1nc(N)c2c3c(sc2n1)CC(C)CC3 (centres undefined),"inconclusive: 28.2 µM [inhibitor, single point]",–
CCOC(=O)CSc1nc2ccc(NC(=O)c3ccc(C)cc3)cc2s1,inactive,–
Cn1c(NC[C@@H](O)c2ccccc2)nc2c1c(=O)n(Cc1ccc(Cl)cc1)c(=O)n2C,inactive,–
Cc1ccc(-n2c([O-])nc(-[n+]3ccccc3)c2C=O)cc1,inactive,–
C=CCn1c(SCC(=O)Nc2c(C)n(C)n(-c3ccccc3)c2=O)nc2scc(-c3ccccc3)c2c1=O,"inconclusive: 18.3 µM [inhibitor, single point]",–
CCn1c(SCC(=O)Nc2cc(OC)c(OC)c(OC)c2)nnc1-c1cccs1,"inconclusive: 16.4 µM [inhibitor, single point]",–
